The target of assay [1] is T1, MSL1^Δ41-85-3xHA (Drosophila melanogaster) (UniProt P50535).
T1 sequence: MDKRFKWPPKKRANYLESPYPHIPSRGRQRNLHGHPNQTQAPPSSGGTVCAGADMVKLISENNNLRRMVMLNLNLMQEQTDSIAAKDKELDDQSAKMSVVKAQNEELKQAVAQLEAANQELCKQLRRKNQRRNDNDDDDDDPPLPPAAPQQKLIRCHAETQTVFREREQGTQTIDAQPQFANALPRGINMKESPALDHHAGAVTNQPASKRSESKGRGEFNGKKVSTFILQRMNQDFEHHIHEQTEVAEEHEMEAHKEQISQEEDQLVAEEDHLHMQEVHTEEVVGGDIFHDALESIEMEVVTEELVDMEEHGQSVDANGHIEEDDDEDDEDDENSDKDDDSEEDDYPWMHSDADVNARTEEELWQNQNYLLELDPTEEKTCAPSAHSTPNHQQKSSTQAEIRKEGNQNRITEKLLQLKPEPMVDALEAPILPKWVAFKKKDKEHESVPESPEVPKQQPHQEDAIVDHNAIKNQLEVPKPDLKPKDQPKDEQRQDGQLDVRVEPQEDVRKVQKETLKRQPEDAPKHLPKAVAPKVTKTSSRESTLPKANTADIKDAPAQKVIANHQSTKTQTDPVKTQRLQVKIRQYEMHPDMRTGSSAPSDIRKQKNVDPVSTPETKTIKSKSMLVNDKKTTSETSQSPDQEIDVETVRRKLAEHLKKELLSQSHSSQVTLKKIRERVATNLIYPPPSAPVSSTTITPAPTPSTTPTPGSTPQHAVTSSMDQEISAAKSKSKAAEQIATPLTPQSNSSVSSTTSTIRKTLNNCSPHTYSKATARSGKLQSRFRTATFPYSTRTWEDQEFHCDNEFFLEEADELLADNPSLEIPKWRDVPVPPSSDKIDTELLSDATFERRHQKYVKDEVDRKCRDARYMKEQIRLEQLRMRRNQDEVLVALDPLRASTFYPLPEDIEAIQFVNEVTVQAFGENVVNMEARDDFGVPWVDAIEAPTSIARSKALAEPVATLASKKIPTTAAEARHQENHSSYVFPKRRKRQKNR
As to the kind of experiment: co-IP; Drosophila S2 cells co-transfected with MSL1*-3xHA and MSL2-3xFLAG, 48 hr; extract made with 420 mM NaCl; immunoprecipitation with anti-FLAG, anti-HA or mouse IgG (negative control) magnetic beads in buffer-150 (20 mM Tris-HCl pH 7.4, 150 mM NaCl, 10 mM MgCl2, 0.1% NP-40), overnight at 4 °C; immunoblot with anti-FLAG-HRP.

The target of assay [2] is T2, MSL1^2A-3xHA (F5A W7A) (Drosophila melanogaster) (UniProt P50535).
T2 sequence: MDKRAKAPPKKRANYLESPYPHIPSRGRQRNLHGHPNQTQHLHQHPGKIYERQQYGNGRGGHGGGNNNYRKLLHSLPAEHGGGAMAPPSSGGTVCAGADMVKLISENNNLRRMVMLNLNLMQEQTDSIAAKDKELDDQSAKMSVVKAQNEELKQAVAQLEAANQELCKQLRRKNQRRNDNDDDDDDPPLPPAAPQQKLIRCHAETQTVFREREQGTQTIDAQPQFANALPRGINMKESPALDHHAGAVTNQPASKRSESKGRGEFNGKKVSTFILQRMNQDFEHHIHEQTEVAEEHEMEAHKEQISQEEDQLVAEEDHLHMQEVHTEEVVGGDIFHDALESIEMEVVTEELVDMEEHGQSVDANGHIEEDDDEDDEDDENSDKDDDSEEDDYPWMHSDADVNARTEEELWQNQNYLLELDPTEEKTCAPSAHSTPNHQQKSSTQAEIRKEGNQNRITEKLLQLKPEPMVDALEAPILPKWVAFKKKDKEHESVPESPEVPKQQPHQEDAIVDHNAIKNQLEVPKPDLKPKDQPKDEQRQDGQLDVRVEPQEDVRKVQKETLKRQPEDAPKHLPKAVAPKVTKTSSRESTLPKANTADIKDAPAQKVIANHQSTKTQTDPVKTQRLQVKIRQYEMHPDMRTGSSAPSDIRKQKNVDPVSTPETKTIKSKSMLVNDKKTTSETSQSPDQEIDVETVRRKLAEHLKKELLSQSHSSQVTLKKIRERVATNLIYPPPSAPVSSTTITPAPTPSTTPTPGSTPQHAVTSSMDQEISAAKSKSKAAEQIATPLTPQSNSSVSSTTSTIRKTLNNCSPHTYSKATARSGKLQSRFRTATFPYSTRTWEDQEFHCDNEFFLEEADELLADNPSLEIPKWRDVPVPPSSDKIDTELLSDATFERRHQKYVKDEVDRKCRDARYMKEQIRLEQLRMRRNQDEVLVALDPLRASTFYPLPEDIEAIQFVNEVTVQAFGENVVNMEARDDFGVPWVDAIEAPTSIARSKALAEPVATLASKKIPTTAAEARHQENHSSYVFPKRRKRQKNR
The description is as above.

Results are given in words; binding and its absence hold for the method and conditions named. Binding seen in cells or lysates may run through a third protein. Some entries that bind do so weakly or less than the wild type. Sequences can lack the tags named with a protein.

B1: MSL2-3xFLAG (protein, UniProt P50534 1-773)
chain: MAQTAYLKVTRIAMRSASNLSKRRVEELNSGLGELRQLLSCVVCCQLLVDPYSPKGKRCQHNVCRLCLRGKKHLFPSCTQCEGCSDFKTYEENRMMAAQLLCYKTLCVHLLHSALFGELAGMRPQVARELVPRIKLPPKTTQEFIREGSNISDTFDIFLPQPDLPFLKDMPTSLPAETPPTSAVTTPELPYDHHLNISDIEAEAAATAEQGHFSPLPLLPTGSRMGMLSHAGQIVIATESSESGFMDQAWTDQVDLSGTVSVSKYTNSGNNFAVSYVMPTSATTKFDPQELQIGQVVQMADSTQLAVLAAVEETVETSTQLTVLSTTVEETVETSTQLEVLTSAEEPNEISDQLANLQVEESDEALVEETVEEAEGTSIPSEVVAEHMEEDQHLDVHTSQSPTQTEMEEAVEEHVATKTQLGHVQTELQDAESLQKDFEDAKAAAEEAKEKEKDLHAISAELQKEDSDEPTLKRKRTRTLKASQAAKIEPVPSEVKTKVQSGKGALRRIRGKDKEEKVKPPKPKCRCGISGSSNTLTTCRNSRCPCYKSYNSCAGCHCVCCKNPHKEDYVESDEDDDLEDFEMPKDVPEPMTQSEEPVVAEPRQEENSMAPPDSSAPISLVPLNNLQQSQHPLVLVQNEKGEYQGFNIFQGSKPLDPVTVGFTIRVQLQHTDGFGSLPQYAYIMPTIDPPNPPAPSLSPPPPPAPDREVIEPPAKKFRTSRTRRGRANFSALDTVDELVSGGSRSNSAAGDRSSATDNAHSLFEEIMSGSDDL
As to B1, the binding result in assay [1] and in assay [2] was “binds” throughout.

For the origin of these results see paper PMC11658772.
